Eight targets from the supplement of paper PMC12819154, “High-throughput peptide-centric local stability assay extends protein–ligand identification to membrane proteins, tissues and bacteria” (Nature Structural & Molecular Biology, 2025) can be followed below.

By UniProt entry, the sequences of proteins in these tests, tags left out. Where a name states a change or a piece, a line headed by the entry shows the natural chain unless it says otherwise.
UniProt Q8N9B5, whole entry: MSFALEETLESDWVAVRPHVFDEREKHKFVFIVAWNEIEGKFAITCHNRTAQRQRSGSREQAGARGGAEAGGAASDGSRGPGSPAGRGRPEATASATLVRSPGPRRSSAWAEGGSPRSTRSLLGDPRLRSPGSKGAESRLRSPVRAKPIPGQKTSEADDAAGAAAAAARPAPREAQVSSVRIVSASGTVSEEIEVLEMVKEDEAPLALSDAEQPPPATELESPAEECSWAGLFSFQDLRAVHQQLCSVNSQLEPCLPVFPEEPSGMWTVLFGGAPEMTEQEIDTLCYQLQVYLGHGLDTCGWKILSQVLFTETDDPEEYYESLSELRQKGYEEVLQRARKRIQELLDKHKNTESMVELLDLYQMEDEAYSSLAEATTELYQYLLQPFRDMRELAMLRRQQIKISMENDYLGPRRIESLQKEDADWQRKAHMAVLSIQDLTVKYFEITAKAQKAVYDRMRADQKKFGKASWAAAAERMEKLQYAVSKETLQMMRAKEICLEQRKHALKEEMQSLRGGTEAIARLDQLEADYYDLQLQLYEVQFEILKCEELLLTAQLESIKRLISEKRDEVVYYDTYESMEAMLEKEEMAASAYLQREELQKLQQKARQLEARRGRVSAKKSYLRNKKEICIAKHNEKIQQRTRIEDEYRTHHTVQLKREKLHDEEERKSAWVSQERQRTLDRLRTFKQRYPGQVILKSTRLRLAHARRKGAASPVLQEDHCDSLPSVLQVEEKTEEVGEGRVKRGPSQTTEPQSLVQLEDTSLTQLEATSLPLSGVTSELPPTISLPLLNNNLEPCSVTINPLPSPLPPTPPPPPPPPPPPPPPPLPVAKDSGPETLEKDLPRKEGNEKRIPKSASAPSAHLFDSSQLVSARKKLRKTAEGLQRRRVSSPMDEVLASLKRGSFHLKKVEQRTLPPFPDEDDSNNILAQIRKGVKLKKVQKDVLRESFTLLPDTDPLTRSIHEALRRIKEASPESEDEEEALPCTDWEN
UniProt Q8N9M1: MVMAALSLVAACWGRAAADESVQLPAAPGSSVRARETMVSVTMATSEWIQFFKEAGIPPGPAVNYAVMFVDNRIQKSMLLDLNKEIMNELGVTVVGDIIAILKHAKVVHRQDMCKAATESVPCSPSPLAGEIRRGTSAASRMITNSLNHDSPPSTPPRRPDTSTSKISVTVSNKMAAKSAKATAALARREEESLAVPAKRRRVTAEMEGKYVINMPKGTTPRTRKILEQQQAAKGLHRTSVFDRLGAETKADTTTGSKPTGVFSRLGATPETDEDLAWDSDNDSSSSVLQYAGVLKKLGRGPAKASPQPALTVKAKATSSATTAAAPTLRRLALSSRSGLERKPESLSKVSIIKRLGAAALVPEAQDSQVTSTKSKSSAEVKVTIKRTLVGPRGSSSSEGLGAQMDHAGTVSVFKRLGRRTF
UniProt Q8NDX1: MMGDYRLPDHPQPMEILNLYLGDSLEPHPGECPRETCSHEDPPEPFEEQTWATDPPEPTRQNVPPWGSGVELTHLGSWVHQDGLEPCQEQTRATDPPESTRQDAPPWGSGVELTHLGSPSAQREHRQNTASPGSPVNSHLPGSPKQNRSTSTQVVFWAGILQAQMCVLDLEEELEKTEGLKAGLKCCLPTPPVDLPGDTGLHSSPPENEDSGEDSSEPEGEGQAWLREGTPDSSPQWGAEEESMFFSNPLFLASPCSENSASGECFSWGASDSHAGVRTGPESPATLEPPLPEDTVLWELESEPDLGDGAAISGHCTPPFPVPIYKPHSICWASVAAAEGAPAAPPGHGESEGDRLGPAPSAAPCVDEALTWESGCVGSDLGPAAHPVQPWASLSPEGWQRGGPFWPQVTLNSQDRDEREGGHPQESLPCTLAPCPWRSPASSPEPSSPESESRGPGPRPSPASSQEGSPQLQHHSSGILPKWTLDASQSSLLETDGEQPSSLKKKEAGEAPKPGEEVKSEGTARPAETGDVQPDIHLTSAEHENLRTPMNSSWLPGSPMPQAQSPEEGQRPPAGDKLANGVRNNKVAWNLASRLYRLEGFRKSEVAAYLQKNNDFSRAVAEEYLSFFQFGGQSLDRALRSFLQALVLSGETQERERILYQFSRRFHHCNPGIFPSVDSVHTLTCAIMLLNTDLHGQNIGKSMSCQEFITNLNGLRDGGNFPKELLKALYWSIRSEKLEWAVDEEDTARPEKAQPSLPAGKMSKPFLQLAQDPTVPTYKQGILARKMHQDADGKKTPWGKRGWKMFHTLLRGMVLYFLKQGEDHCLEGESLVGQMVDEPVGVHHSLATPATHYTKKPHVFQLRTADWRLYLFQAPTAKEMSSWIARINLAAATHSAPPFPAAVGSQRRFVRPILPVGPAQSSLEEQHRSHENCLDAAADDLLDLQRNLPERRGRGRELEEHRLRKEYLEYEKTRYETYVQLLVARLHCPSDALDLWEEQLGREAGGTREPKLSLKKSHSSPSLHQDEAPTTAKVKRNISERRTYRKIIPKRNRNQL
UniProt Q8NFJ9: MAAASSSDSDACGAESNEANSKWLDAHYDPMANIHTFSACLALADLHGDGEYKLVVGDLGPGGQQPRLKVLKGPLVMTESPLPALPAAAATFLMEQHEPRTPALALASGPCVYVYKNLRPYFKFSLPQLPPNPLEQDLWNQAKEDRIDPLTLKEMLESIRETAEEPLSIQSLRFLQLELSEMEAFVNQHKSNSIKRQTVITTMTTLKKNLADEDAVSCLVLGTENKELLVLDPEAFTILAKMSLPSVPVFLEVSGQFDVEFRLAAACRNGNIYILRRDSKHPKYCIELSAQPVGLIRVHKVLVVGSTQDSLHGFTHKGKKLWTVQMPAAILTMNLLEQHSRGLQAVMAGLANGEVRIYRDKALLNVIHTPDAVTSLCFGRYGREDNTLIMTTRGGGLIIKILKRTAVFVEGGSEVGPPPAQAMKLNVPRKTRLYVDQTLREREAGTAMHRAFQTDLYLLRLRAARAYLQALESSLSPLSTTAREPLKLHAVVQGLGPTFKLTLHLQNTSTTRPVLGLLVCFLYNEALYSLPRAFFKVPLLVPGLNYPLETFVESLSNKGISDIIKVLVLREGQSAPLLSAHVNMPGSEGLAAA
UniProt Q8N5J2: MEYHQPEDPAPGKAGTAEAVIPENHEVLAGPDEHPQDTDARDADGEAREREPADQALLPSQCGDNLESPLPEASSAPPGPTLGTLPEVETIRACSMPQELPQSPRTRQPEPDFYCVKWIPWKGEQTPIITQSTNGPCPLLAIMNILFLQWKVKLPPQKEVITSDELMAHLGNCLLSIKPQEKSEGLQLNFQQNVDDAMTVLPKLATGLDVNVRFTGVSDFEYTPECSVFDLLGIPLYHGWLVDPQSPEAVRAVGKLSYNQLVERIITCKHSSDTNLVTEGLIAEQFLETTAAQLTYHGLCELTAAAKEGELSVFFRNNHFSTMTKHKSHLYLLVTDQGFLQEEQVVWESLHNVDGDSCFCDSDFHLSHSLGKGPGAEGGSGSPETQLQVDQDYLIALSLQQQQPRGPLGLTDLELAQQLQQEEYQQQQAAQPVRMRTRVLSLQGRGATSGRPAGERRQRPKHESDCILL
UniProt Q8N612: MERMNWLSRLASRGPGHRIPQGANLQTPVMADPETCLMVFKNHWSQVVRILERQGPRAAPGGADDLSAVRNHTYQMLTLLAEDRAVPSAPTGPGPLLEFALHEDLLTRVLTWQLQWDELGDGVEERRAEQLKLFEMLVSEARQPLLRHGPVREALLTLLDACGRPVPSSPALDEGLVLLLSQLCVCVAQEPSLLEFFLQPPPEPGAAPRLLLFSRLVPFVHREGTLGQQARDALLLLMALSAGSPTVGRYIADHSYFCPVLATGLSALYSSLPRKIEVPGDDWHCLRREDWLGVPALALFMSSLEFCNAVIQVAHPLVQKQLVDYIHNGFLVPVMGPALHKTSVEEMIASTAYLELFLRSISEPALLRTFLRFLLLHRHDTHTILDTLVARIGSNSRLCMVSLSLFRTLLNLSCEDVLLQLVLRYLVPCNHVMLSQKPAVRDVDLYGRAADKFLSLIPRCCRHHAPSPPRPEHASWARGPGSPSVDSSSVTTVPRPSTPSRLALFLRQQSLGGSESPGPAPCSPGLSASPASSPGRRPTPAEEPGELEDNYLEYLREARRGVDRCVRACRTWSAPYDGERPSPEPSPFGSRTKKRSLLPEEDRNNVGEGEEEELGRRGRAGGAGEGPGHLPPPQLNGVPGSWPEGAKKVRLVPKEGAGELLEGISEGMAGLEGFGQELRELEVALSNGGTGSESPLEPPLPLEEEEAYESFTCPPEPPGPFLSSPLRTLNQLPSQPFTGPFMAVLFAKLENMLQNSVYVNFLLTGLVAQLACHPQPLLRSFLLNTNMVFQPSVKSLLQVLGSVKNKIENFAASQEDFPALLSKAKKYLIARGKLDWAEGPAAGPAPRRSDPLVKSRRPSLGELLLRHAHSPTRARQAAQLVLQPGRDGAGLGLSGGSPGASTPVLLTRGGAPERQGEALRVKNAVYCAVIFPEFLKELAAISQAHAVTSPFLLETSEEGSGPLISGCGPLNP
UniProt Q8N5L8: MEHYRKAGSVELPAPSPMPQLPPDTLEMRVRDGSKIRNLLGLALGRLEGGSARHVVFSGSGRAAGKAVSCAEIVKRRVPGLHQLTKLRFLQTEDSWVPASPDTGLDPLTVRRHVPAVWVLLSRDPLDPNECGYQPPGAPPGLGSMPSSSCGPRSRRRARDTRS
UniProt Q8TB05: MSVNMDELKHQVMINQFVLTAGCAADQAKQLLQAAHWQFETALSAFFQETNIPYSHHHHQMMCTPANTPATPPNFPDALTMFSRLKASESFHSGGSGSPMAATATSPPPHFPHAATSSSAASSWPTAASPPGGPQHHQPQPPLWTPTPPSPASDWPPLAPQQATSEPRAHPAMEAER

The list shows a part of the results. Most values lie at the level of the controls, where differences are scatter.

Compound in this assay: CN[C@@H]1C[C@H]2O[C@@](C)([C@@H]1OC)n1c3ccccc3c3c4c(c5c6ccccc6n2c5c31)C(=O)NC4 [staurosporine]
The assay is described as follows: log2 fold change of tryptic peptide abundance, ligand vs vehicle (limited proteolysis) (log2 ratio); higher = more trypsin-susceptible (destabilized). The conditions noted are these: ligand concentration: 20 uM; sample: K562 cleared lysate; digestion: 4 min, 22 C (HT-PELSA RT4min, Orbitrap Astral).
For “JMY (peptide sequence: KHALKEEMQSLR, peptide start residue: 503) (UniProt Q8N9B5)”, the log2 fold change is 0.49.

For “C19orf47 (peptide sequence: LGAAALVPEAQDSQVTSTK, peptide start residue: 356) (UniProt Q8N9M1)”, the log2 fold change came to 0.567.

In the case of “PSD4 (peptide sequence: SHSSPSLHQDEAPTTAK, peptide start residue: 1017) (UniProt Q8NDX1)”, the log2 fold change was found to be 1.11.

Take “UniProt Q8NFJ9 (peptide sequence: GGGLIIK, peptide start residue: 394)”: the log2 fold change worked out at 0.119.

In the case of “MINDY1 (peptide sequence: EGELSVFFR, peptide start residue: 308) (UniProt Q8N5J2)”, the log2 fold change is -0.202.

Regarding “FAM160A2 (peptide sequence: SRRPSLGELLLR, peptide start residue: 855) (UniProt Q8N612)”, the log2 fold change worked out at 0.799.

On to “UniProt Q8N5L8 (peptide sequence: AVSCAEIVKR, peptide start residue: 67)”, for which the log2 fold change is -0.712.

For the target “UniProt Q8TB05 (peptide sequence: AHPAMEAER, peptide start residue: 169)”, the log2 fold change came out at 0.129.
